Here are results for 37 targets from the supplement of paper PMC11006884.

Amino acid sequences for entries named in this document (tags omitted). A change or cut given only in a name is not applied to a line headed by its entry.
UniProt Q09666: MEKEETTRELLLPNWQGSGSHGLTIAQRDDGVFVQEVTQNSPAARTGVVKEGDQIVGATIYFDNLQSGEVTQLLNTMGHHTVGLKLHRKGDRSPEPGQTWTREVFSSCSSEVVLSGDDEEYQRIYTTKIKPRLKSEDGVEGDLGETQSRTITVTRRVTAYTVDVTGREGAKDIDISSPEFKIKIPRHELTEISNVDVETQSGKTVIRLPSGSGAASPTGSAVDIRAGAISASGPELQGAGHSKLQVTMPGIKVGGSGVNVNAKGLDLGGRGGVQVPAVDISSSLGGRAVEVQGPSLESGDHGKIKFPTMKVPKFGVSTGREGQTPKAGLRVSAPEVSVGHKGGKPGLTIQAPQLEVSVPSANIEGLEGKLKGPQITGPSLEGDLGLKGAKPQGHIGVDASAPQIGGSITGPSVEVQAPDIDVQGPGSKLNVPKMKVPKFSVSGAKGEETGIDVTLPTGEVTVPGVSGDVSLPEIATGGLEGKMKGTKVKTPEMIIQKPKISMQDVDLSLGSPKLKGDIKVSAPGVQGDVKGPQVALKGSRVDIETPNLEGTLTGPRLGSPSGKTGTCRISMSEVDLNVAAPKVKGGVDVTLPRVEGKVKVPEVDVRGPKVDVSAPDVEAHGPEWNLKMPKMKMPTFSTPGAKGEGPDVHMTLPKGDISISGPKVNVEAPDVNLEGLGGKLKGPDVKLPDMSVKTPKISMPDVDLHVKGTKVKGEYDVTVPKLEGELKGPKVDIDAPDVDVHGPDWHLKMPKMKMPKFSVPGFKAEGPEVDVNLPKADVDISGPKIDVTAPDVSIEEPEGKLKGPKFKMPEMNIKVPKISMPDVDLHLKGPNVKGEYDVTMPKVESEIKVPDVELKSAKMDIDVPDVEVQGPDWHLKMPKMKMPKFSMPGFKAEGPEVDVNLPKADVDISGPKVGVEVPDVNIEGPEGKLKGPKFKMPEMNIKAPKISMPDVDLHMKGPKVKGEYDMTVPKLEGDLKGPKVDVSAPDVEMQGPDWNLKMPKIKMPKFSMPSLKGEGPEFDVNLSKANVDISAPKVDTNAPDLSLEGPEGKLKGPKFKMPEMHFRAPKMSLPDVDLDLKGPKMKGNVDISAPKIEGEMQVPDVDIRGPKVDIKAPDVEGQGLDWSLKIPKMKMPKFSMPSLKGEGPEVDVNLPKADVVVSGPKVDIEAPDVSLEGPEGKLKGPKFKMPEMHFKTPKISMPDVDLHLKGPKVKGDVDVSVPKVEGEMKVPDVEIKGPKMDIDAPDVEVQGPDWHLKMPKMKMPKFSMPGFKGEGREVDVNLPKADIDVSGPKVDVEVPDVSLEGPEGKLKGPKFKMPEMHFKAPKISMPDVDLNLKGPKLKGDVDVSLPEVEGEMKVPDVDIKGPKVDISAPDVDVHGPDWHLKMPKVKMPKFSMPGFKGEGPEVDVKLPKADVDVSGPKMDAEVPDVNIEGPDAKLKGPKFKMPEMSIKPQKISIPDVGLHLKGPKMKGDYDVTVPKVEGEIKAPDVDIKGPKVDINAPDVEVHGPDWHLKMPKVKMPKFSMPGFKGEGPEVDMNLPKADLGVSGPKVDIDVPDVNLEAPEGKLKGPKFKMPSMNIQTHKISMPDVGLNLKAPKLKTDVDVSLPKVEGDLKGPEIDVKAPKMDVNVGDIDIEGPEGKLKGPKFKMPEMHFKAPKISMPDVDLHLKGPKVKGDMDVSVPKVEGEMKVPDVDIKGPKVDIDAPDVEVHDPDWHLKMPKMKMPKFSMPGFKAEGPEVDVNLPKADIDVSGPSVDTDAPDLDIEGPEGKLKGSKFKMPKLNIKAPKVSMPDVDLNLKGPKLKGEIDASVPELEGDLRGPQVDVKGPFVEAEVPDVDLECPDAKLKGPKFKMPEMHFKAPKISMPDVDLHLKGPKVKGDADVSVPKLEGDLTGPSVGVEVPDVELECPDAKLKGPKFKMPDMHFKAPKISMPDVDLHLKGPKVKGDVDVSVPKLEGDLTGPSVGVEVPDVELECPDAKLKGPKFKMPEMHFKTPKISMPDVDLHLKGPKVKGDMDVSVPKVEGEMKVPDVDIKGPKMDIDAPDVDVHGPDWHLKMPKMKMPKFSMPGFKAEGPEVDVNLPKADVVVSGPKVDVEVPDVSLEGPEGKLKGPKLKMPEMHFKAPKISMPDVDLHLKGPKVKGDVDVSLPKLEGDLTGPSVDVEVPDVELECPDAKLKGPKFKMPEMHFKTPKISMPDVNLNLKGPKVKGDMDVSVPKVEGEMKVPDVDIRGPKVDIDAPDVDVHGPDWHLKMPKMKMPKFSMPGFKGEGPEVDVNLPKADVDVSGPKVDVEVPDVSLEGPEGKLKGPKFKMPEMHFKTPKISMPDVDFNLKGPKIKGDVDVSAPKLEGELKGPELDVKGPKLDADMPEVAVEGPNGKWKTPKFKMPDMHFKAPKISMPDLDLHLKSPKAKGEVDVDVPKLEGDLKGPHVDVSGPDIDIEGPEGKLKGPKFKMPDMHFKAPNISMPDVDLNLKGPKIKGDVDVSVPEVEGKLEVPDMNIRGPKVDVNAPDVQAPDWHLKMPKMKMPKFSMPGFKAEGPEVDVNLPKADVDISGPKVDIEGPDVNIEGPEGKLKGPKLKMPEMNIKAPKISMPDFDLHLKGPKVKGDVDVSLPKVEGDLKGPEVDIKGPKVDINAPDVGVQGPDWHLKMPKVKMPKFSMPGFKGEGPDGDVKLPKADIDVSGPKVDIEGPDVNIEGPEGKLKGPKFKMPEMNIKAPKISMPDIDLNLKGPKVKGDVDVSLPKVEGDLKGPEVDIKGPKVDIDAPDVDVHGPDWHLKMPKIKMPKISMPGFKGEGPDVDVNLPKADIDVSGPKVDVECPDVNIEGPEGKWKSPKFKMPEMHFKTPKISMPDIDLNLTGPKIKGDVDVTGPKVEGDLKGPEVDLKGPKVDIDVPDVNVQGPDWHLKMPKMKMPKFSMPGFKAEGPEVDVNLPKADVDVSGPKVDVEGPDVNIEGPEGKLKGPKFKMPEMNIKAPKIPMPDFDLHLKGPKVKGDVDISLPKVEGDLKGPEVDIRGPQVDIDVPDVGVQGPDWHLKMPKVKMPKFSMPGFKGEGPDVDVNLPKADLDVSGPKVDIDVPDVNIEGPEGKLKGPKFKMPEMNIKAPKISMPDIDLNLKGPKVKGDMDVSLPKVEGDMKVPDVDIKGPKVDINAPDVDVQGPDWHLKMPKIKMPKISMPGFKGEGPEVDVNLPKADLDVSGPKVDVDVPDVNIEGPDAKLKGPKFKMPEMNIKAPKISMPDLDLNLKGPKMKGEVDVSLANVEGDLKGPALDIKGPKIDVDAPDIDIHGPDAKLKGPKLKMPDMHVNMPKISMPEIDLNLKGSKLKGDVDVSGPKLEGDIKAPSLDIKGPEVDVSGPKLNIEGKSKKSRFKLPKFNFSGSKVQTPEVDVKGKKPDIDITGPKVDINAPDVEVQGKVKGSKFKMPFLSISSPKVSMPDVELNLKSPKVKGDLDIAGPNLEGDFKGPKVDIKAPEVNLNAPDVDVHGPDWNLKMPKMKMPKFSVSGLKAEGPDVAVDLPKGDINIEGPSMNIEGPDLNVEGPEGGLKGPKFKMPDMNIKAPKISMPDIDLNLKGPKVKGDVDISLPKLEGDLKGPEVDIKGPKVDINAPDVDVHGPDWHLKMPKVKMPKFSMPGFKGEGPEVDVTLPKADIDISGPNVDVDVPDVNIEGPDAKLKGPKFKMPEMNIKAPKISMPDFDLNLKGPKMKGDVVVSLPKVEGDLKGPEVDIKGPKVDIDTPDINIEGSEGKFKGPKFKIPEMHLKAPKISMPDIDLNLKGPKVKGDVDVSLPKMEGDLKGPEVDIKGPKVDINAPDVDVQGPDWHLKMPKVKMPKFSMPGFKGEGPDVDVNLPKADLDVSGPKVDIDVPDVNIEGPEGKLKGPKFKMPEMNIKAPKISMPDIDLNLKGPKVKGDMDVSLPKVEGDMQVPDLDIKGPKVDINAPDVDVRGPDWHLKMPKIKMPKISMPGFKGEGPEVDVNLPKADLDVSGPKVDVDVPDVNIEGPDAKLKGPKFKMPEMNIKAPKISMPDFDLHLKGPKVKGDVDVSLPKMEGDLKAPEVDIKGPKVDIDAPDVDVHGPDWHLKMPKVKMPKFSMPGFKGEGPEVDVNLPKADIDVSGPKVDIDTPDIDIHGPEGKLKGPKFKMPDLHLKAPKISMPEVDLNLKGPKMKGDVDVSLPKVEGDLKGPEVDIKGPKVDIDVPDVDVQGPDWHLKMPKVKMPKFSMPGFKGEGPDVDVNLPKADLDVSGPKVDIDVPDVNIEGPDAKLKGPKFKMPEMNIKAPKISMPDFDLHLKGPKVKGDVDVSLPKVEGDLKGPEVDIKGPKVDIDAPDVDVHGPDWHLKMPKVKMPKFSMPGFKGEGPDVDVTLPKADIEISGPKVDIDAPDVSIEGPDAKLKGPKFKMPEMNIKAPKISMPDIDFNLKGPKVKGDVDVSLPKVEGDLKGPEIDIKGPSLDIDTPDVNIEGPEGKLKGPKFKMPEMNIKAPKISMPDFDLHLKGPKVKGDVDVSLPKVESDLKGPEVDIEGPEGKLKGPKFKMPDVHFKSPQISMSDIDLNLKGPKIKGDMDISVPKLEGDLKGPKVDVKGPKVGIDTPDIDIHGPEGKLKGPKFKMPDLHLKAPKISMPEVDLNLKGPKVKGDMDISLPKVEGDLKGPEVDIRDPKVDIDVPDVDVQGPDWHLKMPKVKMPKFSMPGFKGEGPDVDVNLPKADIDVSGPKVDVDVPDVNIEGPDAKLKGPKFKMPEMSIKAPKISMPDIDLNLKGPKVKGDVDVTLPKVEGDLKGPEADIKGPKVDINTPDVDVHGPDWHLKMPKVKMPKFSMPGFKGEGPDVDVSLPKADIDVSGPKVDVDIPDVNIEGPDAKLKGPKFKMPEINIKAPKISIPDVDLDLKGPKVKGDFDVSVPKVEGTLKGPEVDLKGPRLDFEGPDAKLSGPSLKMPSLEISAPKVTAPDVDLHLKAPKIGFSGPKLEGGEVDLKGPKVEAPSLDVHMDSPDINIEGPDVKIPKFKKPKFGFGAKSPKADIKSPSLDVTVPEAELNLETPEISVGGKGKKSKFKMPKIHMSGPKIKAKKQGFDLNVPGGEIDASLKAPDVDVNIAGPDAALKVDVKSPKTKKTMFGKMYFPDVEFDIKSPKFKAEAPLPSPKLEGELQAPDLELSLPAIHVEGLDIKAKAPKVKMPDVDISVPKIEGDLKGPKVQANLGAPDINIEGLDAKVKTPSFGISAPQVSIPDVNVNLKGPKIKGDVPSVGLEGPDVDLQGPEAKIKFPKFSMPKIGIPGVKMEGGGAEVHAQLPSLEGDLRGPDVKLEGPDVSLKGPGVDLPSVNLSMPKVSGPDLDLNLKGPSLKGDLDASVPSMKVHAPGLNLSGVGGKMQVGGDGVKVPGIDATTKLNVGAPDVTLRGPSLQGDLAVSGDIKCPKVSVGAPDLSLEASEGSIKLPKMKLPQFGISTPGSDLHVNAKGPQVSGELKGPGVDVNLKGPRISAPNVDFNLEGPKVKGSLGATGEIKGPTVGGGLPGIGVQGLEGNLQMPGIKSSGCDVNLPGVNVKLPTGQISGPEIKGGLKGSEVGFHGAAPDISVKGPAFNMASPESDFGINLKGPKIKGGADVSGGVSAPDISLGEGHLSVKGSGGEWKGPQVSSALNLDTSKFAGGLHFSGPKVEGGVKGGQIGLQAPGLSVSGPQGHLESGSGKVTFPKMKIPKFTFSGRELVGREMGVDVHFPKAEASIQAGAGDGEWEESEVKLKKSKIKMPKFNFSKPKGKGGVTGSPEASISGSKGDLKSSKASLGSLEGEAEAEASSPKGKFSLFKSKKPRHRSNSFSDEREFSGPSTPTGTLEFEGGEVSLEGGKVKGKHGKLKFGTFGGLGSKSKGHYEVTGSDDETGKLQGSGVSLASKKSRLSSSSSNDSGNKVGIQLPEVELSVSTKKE
UniProt Q10713: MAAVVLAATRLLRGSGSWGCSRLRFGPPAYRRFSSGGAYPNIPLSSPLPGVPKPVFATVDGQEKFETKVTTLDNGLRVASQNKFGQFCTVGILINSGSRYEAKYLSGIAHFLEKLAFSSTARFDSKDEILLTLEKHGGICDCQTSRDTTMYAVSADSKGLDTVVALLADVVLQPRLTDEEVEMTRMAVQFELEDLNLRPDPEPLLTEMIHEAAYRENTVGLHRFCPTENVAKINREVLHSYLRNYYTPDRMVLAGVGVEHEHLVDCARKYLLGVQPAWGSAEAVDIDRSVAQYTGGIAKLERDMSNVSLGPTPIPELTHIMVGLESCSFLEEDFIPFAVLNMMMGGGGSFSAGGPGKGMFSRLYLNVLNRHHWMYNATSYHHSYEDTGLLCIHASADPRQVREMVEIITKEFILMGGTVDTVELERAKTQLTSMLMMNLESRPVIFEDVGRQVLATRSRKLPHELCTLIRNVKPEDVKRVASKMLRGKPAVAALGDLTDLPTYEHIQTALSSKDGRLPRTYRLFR

Most of the targets with a hit are listed elsewhere, so they are rarer here than in the full data. The data scatter; read single values as rough. The entries are a selection whose mix differs from that of the whole data set.

Compound in the test: COC(=O)/C=C/c1ccccc1 [methyl cinnamate]
Kind of test: log2 ratio of iodoacetamide-alkyne labeling of the cysteine site, DMSO over compound (competition); higher = stronger covalent engagement of the cysteine by the compound, active = 1 or more. Particulars: 500 µM; treatment time 1 h; system: HEK293T cell lysate. The essentials:
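HEK293T lysate (2 mg/mL) was treated with DMSO or electrophile (500 µM, 1 h, ambient temperature), then iodoacetamide alkyne (1 h), clicked to sCIP-TMT reagents, pooled, trypsin-digested overnight at 37 °C, streptavidin-enriched and acid-eluted. Peptides were run on Orbitrap Eclipse LC-MS/MS with FAIMS and quantified in FragPipe. The log2 competition ratio per cysteine is mean control-channel over mean compound-channel reporter intensity. Duplicate channels and three replicates were used, and cysteines quantified in only one replicate were excluded.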
On to MTA1 C229 (UniProt Q13330), for which the “log2 ratio of iodoacetamide-alkyne labeling” value (from here on “log2 ratio”) was inactive: 0.111.
AP1B1 C921 (UniProt Q10567): the “log2 ratio” value was inactive: 0.277.
Regarding AKAP12 C684 (UniProt Q02952), the “log2 ratio” value was inactive: 0.0938.
Take NSUN2 C502 (UniProt Q08J23): the “log2 ratio” value is inactive: 0.58.
With NCBP1 C44 (UniProt Q09161), the “log2 ratio” value is inactive: -0.0746.
As for EEF1A2 C326 (UniProt Q05639), the “log2 ratio” value is inactive: 0.338.
For FMR1 C584 (UniProt Q06787), the “log2 ratio” value is inactive: 0.202.
Regarding PTPN11 C318 (UniProt Q06124), the “log2 ratio” value is inactive: 0.394.
For the target UniProt Q12904_C161, the “log2 ratio” value was inactive: 0.108.
On to G3BP1 C73 (UniProt Q13283), for which the “log2 ratio” value was inactive: 0.243.
As for DHX9 C12 (UniProt Q08211), the figure is inactive: -0.0348; as for GABPA C338 (UniProt Q06546), inactive: 0.257; as for UniProt Q13163_C300, inactive: 0.198.
With RPL18A C22 (UniProt Q02543), the “log2 ratio” value was inactive: 0.0525.
As for TRAF2 C107 (UniProt Q12933), the figure is inactive: 0.166.
As for UniProt Q13131_C185, the figure is inactive: 0.414.
As for VAC14 C114 (UniProt Q08AM6), the figure is inactive: 0.216; as for AHNAK C1900 (UniProt Q09666), inactive: 0.288; as for LGALS3BP C489 (UniProt Q08380), inactive: 0.29.
Regarding ILF3 C295 (UniProt Q12906), the “log2 ratio” value is inactive: -0.00722.
As for ILK C422 (UniProt Q13418), the figure is inactive: 0.00864.
For the target UniProt Q12905_C37, the “log2 ratio” value is inactive: -0.124.
Turning to PLOD1 C267 (UniProt Q02809), the “log2 ratio” value was inactive: 0.104.
For the target PTPN13 C2229 (UniProt Q12923), the “log2 ratio” value was inactive: 0.116.
Under AHNAK C108 (UniProt Q09666) stands inactive: 0.364; under TARBP1 C1556 (UniProt Q13395), inactive: 0.158.
For MVK C275 (UniProt Q03426), the “log2 ratio” value is inactive: 0.237.
Take GTF3C1 C1681 (UniProt Q12789): the “log2 ratio” value is inactive: 0.105.
For the target AHNAK C1967 (UniProt Q09666), the “log2 ratio” value is inactive: 0.235.
Regarding UBE3A C198 (UniProt Q05086), the “log2 ratio” value is inactive: 0.308.
Consider PRDM2 C718 (UniProt Q13029), for which the “log2 ratio” value was inactive: 0.242.
Regarding TJP1 C1727 (UniProt Q07157), the “log2 ratio” value was inactive: -0.0195.
Regarding AKAP12 C1407 (UniProt Q02952), the “log2 ratio” value is inactive: 0.331.
Under LMNB2 C212 (UniProt Q03252) stands inactive: 0.16; under TRIM28 C713 (UniProt Q13263), inactive: -0.355; under PMPCA C466 (UniProt Q10713), inactive: 0.00833.
In the case of CDC16 C46 (UniProt Q13042), the “log2 ratio” value was inactive: -0.109.
